In the supplement of paper PMC4604168 (melanoma cell lines):
Some of the results follow. Single values are uncertain, as repeats are few or missing.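 Imaging used 1,536-well plates; nuclei positive for cleaved PARP by antibody were divided by total DNA-stained nuclei to yield the apoptosis fraction. Doses for screening kept most cells viable, and cell lines differ markedly in resting and induced cleaved-PARP levels.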

Key:
Assay in all cases: cleaved PARP positive nuclei fraction relative to DMSO control; melanoma cells; higher = more apoptosis
Conditions in all cases: library dose: low library concentration; 72 h
MZ2-MEL = tested on: MZ2-MEL
MeWo = tested on: MeWo
RPMI7951 = tested on: RPMI7951
RVH-421 = tested on: RVH-421
SkMel28 = tested on: SkMel28
SkMel2 = tested on: SkMel2
SkMel30 = tested on: SkMel30
UACC62 = tested on: UACC62

| SMILES | cleaved PARP positive nuclei fraction (MZ2-MEL) | cleaved PARP positive nuclei fraction (MeWo) | cleaved PARP positive nuclei fraction (RPMI7951) | cleaved PARP positive nuclei fraction (RVH-421) | cleaved PARP positive nuclei fraction (SkMel28) | cleaved PARP positive nuclei fraction (SkMel2) | cleaved PARP positive nuclei fraction (SkMel30) | cleaved PARP positive nuclei fraction (UACC62) |
| --- | --- | --- | --- | --- | --- | --- | --- | --- |
| CC1(C)CCC(c2ccc(Cl)cc2)=C(CN2CCN(c3ccc(C(=O)NS(=O)(=O)c4ccc(N[C@H](CCN5CCOCC5)CSc5ccccc5)c(S(=O)(=O)C(F)(F)F)c4)cc3)CC2)C1 + C[C@]1(O)C[C@@H](c2nc(-c3ccc4ccc(-c5ccccc5)nc4c3)c3c(N)nccn32)C1 [OSI906] (first compound 0.4 µM, partner dose 0.4 µM) | 270% | 527% | 136% | 179% | 77.6% | 139% | 95% | 204% |
| Cn1cnc2c(F)c(Nc3ccc(Br)cc3Cl)c(C(=O)NOCCO)cc21 [selumetinib] + Cc1nc(Nc2ncc(C(=O)Nc3c(C)cccc3Cl)s2)cc(N2CCN(CCO)CC2)n1 [dasatanib] (first compound 0.015 µM, partner dose 0.004 µM) | 260% | 139% | 305% | 193% | 78.7% | 165% | 73.4% | 247% |
| C[C@]1(O)C[C@@H](c2nc(-c3ccc4ccc(-c5ccccc5)nc4c3)c3c(N)nccn32)C1 + COCC[n+]1c2c(n(Cc3cnccn3)c1C)C(=O)c1ccccc1C2=O [YM155] (first compound 0.4 µM, partner dose 0.0004 µM) | 95.8% | 93.9% | 170% | 83.3% | 80.4% | 36.9% | 141% | 147% |
| CCN(CC)CCNC(=O)c1c(C)[nH]c(/C=C2\C(=O)Nc3ccc(F)cc32)c1C [sunitinib] + Nc1cccc2c1CN(C1CCC(=O)NC1=O)C2=O [lenalidomide] (first compound 0.4 µM, partner dose 1 µM) | 30.3% | 89.2% | 48.4% | 81.4% | 162% | 88.7% | 74.5% | 118% |
| NC(=O)c1ccc(N(C(N)=O)c2c(F)cccc2F)nc1-c1ccc(F)cc1F + C=CCNC1=C2C[C@@H](C)C[C@H](OC)[C@H](O)[C@@H](C)/C=C(\C)[C@H](OC(N)=O)[C@@H](OC)/C=C\C=C(/C)C(=O)NC(=CC1=O)C2=O [Tanespimycin] (first compound 0.4 µM, partner dose 0.002 µM) | 119% | 137% | 81.9% | 174% | 91.4% | 104% | 92.6% | 126% |
| NC(=O)c1ccc(N(C(N)=O)c2c(F)cccc2F)nc1-c1ccc(F)cc1F + Cn1c(=O)n(-c2ccc(C(C)(C)C#N)cc2)c2c3cc(-c4cnc5ccccc5c4)ccc3ncc21 [NVP-BEZ235] (first compound 0.4 µM, partner dose 0.004 µM) | 102% | 25.4% | 48.6% | 112% | 186% | 20.2% | 102% | 119% |
| C[C@@H](N)c1ccc(C(=O)Nc2ccnc3[nH]ccc23)cc1 + CNC(=O)c1cc(Oc2ccc(NC(=O)Nc3ccc(Cl)c(C(F)(F)F)c3)cc2)ccn1 [sorafenib] (first compound 0.4 µM, partner dose 0.4 µM) | 292% | 126% | 723% | 47.8% | 44.7% | 89.2% | 52.3% | 140% |
| COc1ccc(C2=N[C@@H](c3ccc(Cl)cc3)[C@@H](c3ccc(Cl)cc3)N2C(=O)N2CCNC(=O)C2)c(OC(C)C)c1 [Nutlin-3] + C=CCNC1=C2C[C@@H](C)C[C@H](OC)[C@H](O)[C@@H](C)/C=C(\C)[C@H](OC(N)=O)[C@@H](OC)/C=C\C=C(/C)C(=O)NC(=CC1=O)C2=O [Tanespimycin] (first compound 0.1 µM, partner dose 0.002 µM) | 60.8% | 104% | 113% | 38% | 80.3% | 56.9% | 49.5% | 72.2% |
| CCCCCCCCc1ccc(CCC(N)(CO)CO)cc1 [fingolimod] + COc1ccc(Cl)c(Nc2nc3ccccc3nc2NS(=O)(=O)c2cccc(NC(=O)C(C)(C)N)c2)c1 [XL147] (first compound 2 µM, partner dose 0.8 µM) | 55.3% | 145% | 141% | 120% | 55.6% | 67.1% | 120% | 399% |
| CC1(C)CCC(c2ccc(Cl)cc2)=C(CN2CCN(c3ccc(C(=O)NS(=O)(=O)c4ccc(N[C@H](CCN5CCOCC5)CSc5ccccc5)c(S(=O)(=O)C(F)(F)F)c4)cc3)CC2)C1 + CC(=O)c1c(C)c2cnc(Nc3ccc(N4CCNCC4)cn3)nc2n(C2CCCC2)c1=O [palbociclib] (first compound 0.4 µM, partner dose 0.04 µM) | 247% | 65% | 200% | 55.3% | 128% | 51.1% | 297% | 138% |
| NC(=O)c1ccc(N(C(N)=O)c2c(F)cccc2F)nc1-c1ccc(F)cc1F + C#Cc1cccc(Nc2ncnc3cc(OCCOC)c(OCCOC)cc23)c1 [erlotinib] (first compound 0.4 µM, partner dose 0.8 µM) | 17.6% | 165% | 60.2% | 117% | 94.6% | 45.8% | 152% | 290% |
| CCN(CC)CCNC(=O)c1c(C)[nH]c(/C=C2\C(=O)Nc3ccc(F)cc32)c1C [sunitinib] + Cn1nnc2c(C(N)=O)ncn2c1=O [temozolomide] (first compound 0.4 µM, partner dose 2 µM) | 104% | 139% | 318% | 110% | 75.4% | 80.2% | 102% | 305% |
| C[C@]1(O)C[C@@H](c2nc(-c3ccc4ccc(-c5ccccc5)nc4c3)c3c(N)nccn32)C1 + Cn1c(Nc2ccc(C(F)(F)F)cc2)nc2cc(Oc3ccnc(-c4ncc(C(F)(F)F)[nH]4)c3)ccc21 [CHIR265] (first compound 0.4 µM, partner dose 0.08 µM) | 59.6% | 232% | 185% | 189% | 128% | 337% | 155% | 300% |
| COc1ccc(C2=N[C@@H](c3ccc(Cl)cc3)[C@@H](c3ccc(Cl)cc3)N2C(=O)N2CCNC(=O)C2)c(OC(C)C)c1 [Nutlin-3] + Nc1ccn([C@@H]2O[C@H](CO)[C@@H](O)C2(F)F)c(=O)n1 [gemcitabine] (first compound 0.1 µM, partner dose 0.0004 µM) | 65.9% | 84.2% | 64% | 79.6% | 138% | 152% | 42.6% | 130% |
| Cn1cnc2c(F)c(Nc3ccc(Br)cc3Cl)c(C(=O)NOCCO)cc21 [selumetinib] + COc1ccc(C2=N[C@@H](c3ccc(Cl)cc3)[C@@H](c3ccc(Cl)cc3)N2C(=O)N2CCNC(=O)C2)c(OC(C)C)c1 [Nutlin-3] (first compound 0.015 µM, partner dose 0.1 µM) | 183% | 132% | 47.2% | 208% | 79.1% | 303% | 127% | 117% |
| CC1(C)CCC(c2ccc(Cl)cc2)=C(CN2CCN(c3ccc(C(=O)NS(=O)(=O)c4ccc(N[C@H](CCN5CCOCC5)CSc5ccccc5)c(S(=O)(=O)C(F)(F)F)c4)cc3)CC2)C1 + COc1ccc(Cl)c(Nc2nc3ccccc3nc2NS(=O)(=O)c2cccc(NC(=O)C(C)(C)N)c2)c1 [XL147] (first compound 0.4 µM, partner dose 0.8 µM) | 150% | 523% | 114% | 131% | 40.5% | 77.5% | 212% | 53% |
| C[C@@H](N)c1ccc(C(=O)Nc2ccnc3[nH]ccc23)cc1 + CC(=O)c1c(C)c2cnc(Nc3ccc(N4CCNCC4)cn3)nc2n(C2CCCC2)c1=O [palbociclib] (first compound 0.4 µM, partner dose 0.04 µM) | 112% | 161% | 53.6% | 348% | 133% | 65.1% | 45.2% | 98% |
| NC1(c2ccc(-c3nc4ccn5c(=O)[nH]nc5c4cc3-c3ccccc3)cc2)CCC1 + Cn1c(Nc2ccc(C(F)(F)F)cc2)nc2cc(Oc3ccnc(-c4ncc(C(F)(F)F)[nH]4)c3)ccc21 [CHIR265] (first compound 0.4 µM, partner dose 0.08 µM) | 91.2% | 191% | 124% | 148% | 258% | 88.2% | 23.7% | 93.4% |
| NC1(c2ccc(-c3nc4ccn5c(=O)[nH]nc5c4cc3-c3ccccc3)cc2)CCC1 + Nc1cccc2c1CN(C1CCC(=O)NC1=O)C2=O [lenalidomide] (first compound 0.4 µM, partner dose 1 µM) | 27.9% | 64.7% | 53.7% | 134% | 181% | 15.2% | 38.2% | 269% |
| NC1(c2ccc(-c3nc4ccn5c(=O)[nH]nc5c4cc3-c3ccccc3)cc2)CCC1 + O=C(O)[C@@H]1[O][Sb](=[O])([O][Sb]2(=[O])[O][C@H]([C@H](O)CO)[C@H](O)[C@H](C(=O)O)[O]2)[O][C@H]([C@H](O)CO)[C@@H]1O [stibogluconate] (first compound 0.4 µM, partner dose 2 µM) | 92.6% | 127% | 83.6% | 184% | 90% | 143% | 84.3% | 87% |
| CC(=O)O[C@@]12CO[C@@H]1C[C@H](O)[C@@]1(C)C(=O)[C@H](O)C3=C(C)[C@@H](OC(=O)[C@H](O)[C@@H](NC(=O)OC(C)(C)C)c4ccccc4)C[C@@](O)([C@@H](OC(=O)c4ccccc4)[C@H]21)C3(C)C [Docetaxel] + Cn1c(Nc2ccc(C(F)(F)F)cc2)nc2cc(Oc3ccnc(-c4ncc(C(F)(F)F)[nH]4)c3)ccc21 [CHIR265] (first compound 0.0001 µM, partner dose 0.08 µM) | 341% | 2900% | 275% | 379% | 986% | 1580% | 544% | 1030% |
| Cn1sc(=O)n(Cc2ccccc2)c1=O + C[C@]1(c2nc3c(C(N)=O)cccc3[nH]2)CCCN1 [Veliparib] (first compound 0.4 µM, partner dose 1.4 µM) | 40.4% | 138% | 54.2% | 88.6% | 89.7% | 106% | 144% | 52.5% |

Copied from the listing for reference:

| SMILES | cleaved PARP positive nuclei fraction (MZ2-MEL) | cleaved PARP positive nuclei fraction (MeWo) | cleaved PARP positive nuclei fraction (RPMI7951) | cleaved PARP positive nuclei fraction (RVH-421) | cleaved PARP positive nuclei fraction (SkMel28) | cleaved PARP positive nuclei fraction (SkMel2) | cleaved PARP positive nuclei fraction (SkMel30) | cleaved PARP positive nuclei fraction (UACC62) |
| --- | --- | --- | --- | --- | --- | --- | --- | --- |
| CC1(C)CCC(c2ccc(Cl)cc2)=C(CN2CCN(c3ccc(C(=O)NS(=O)(=O)c4ccc(N[C@H](CCN5CCOCC5)CSc5ccccc5)c(S(=O)(=O)C(F)(F)F)c4)cc3)CC2)C1 + C[C@]1(O)C[C@@H](c2nc(-c3ccc4ccc(-c5ccccc5)nc4c3)c3c(N)nccn32)C1 [OSI906] (first compound 0.4 µM, partner dose 0.4 µM) | 270% | 527% | 136% | 179% | 77.6% | 139% | 95% | 204% |
| Cn1cnc2c(F)c(Nc3ccc(Br)cc3Cl)c(C(=O)NOCCO)cc21 [selumetinib] + Cc1nc(Nc2ncc(C(=O)Nc3c(C)cccc3Cl)s2)cc(N2CCN(CCO)CC2)n1 [dasatanib] (first compound 0.015 µM, partner dose 0.004 µM) | 260% | 139% | 305% | 193% | 78.7% | 165% | 73.4% | 247% |
| C[C@]1(O)C[C@@H](c2nc(-c3ccc4ccc(-c5ccccc5)nc4c3)c3c(N)nccn32)C1 + COCC[n+]1c2c(n(Cc3cnccn3)c1C)C(=O)c1ccccc1C2=O [YM155] (first compound 0.4 µM, partner dose 0.0004 µM) | 95.8% | 93.9% | 170% | 83.3% | 80.4% | 36.9% | 141% | 147% |
| CCN(CC)CCNC(=O)c1c(C)[nH]c(/C=C2\C(=O)Nc3ccc(F)cc32)c1C [sunitinib] + Nc1cccc2c1CN(C1CCC(=O)NC1=O)C2=O [lenalidomide] (first compound 0.4 µM, partner dose 1 µM) | 30.3% | 89.2% | 48.4% | 81.4% | 162% | 88.7% | 74.5% | 118% |
| NC(=O)c1ccc(N(C(N)=O)c2c(F)cccc2F)nc1-c1ccc(F)cc1F + C=CCNC1=C2C[C@@H](C)C[C@H](OC)[C@H](O)[C@@H](C)/C=C(\C)[C@H](OC(N)=O)[C@@H](OC)/C=C\C=C(/C)C(=O)NC(=CC1=O)C2=O [Tanespimycin] (first compound 0.4 µM, partner dose 0.002 µM) | 119% | 137% | 81.9% | 174% | 91.4% | 104% | 92.6% | 126% |
